{"sequences": {"note": "By UniProt entry, the sequences of proteins in these tests, tags left out.", "UniProt P17325, whole entry": "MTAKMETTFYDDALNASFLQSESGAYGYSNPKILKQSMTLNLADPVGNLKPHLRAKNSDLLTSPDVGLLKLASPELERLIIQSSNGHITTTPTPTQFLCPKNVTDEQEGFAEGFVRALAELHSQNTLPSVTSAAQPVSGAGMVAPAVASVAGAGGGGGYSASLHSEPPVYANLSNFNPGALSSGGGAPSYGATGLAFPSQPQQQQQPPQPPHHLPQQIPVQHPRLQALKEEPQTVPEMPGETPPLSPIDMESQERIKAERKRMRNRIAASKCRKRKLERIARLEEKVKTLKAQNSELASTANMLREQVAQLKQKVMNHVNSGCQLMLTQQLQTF"}, "source": "paper PMC7319343", "molecular_target": "c-JUN (UniProt P17325)", "assay": "competition with a labelled probe", "conditions": "100-fold excess unlabeled vs labeled CRE probe, did not diminish complex; 10 min preincubation then 30 min at 25 C with DIG probe; 4% PAGE in 0.5x TBE, 100 V, 70 min; protein in an extract; label: none (unlabeled competitor)", "note": "The exact form of at least one protein or probe is not confirmed. Where cells or extracts were used, other partners may take part. No signal at the amounts used counts as a negative.", "data": [{"sequence": "GGACTTCTTGGAATTAAGGGA (double strand) [STAT5B-binding probe]", "values": [{"measurement": "binding result", "result": "no binding"}]}]}
